# Results reported in PubChem BioAssay AID504834 (National Center for Advancing Translational Sciences (NCATS), 2011).
# Among all 320,000 compounds or so, about 22,000 (6.9%) were called active. The shares of active, inactive and inconclusive entries below differ from those in the screen. Calls follow the shape of the dose curve; as a rule, active = well fitted inhibition curve with a large enough effect; inconclusive = small, poorly fitted or top-dose-only effect, or another doubt; inactive = no such curve, though single readings can be large or run the other way. A potency beside an inconclusive call is a rough fit, not a confirmed value.
# Experiment: Primary qHTS for delayed death inhibitors of the malarial parasite plastid, 96 hour incubation
# Settings: P. falciparum luciferase reporter growth; series mostly up to 28.7 µM
# Summary of the method: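 Two parasite generations (96 h, 37 C, 5% CO2) of compound exposure in infected erythrocytes (0.05% parasitemia, 2% hematocrit). Luciferase-reporter P. falciparum; decreased luminescence indicates inhibited growth, aimed at apicoplast-acting delayed death.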
# Potency is read from the fitted curve at half-maximal effect.
row,Structure (SMILES),Potency
1,Cc1cc2cc(CNC(=O)c3ccc(Br)o3)ccc2[nH]1,"inconclusive: 9.28 µM [inhibitor, partial curve, poor fit]"
2,COc1ccccc1NC(=O)c1ccc(COc2ccc3c(c2)CCC3)cc1,"inconclusive: 10.4 µM [inhibitor, single point]"
3,O=C(CN1CCN(C(=O)c2cccc(F)c2)CC1)Nc1ccccc1F,inactive
4,COC(=O)/C=C/c1cnc2ccccc2c1,inactive
5,CCOC(=O)N1CCC(NC(=O)C2CCCN(C(=O)N3CCOc4ccccc43)C2)CC1 (stereo unspecified),inactive
6,Cc1ccc(NC(=O)/C(Cl)=C/c2ccccc2)cc1C,"inconclusive: 10.4 µM [inhibitor, single point]"
7,COc1ccccc1OCC(=O)N1CCCC(N2CCN(c3ccc(F)cc3)CC2)C1 (stereo unspecified),inactive
8,O=[N+]([O-])c1ccc(/C=N/Nc2nc(N3CCCC3)nc(N3CCCC3)n2)o1,active: 10.4 µM
9,CCOc1ccc2ccccc2c1/C=N/NC(=O)CC1(C)OCCCO1,inactive
10,O=C(NCc1cccnc1)c1ccc(Cn2c(=S)[nH]c3ccc(Br)cc3c2=O)cc1,"inconclusive: 1.65 µM [inhibitor, partial curve, poor fit]"
11,Cc1cc(Cl)c2c(c1)[C@]1(C(=O)N2)[C@@H]2C(=O)N(Cc3ccccc3)C(=O)[C@@H]2[C@@H]2CCCN21,"inconclusive: 1.47 µM [inhibitor, single point]"
12,COc1ccc(OC)c(NC(=O)Nc2ccccc2C)c1,inactive
13,Cc1c(CCO)c(=O)[nH]n1S(=O)(=O)c1ccc(F)cc1,inactive
14,CCOC(=O)c1cc2c(ccc3nc(C)c(C)c32)[nH]c1C,inactive
15,O=[N+]([O-])c1ccc(C(O)CNC(=S)Nc2ccccc2)cc1 (stereo unspecified),"inconclusive: 11.7 µM [inhibitor, single point]"
16,CC(=O)O[C@]1(C(C)=O)CC[C@H]2[C@@H]3C=C(C)C4=CC(=O)CC[C@]4(C)[C@H]3CC[C@@]21C,active: 11.7 µM
17,CC(C)C(=O)N1CCC(c2nc(-c3ccc(S(=O)(=O)N4CCN(C)CC4)cc3)no2)CC1,"inconclusive: 4.65 µM [inhibitor, partial curve]"
18,O=C(CNC(=S)NC(=O)c1ccco1)c1ccccc1,inactive
19,COc1ccc(NC(=O)c2ccccc2Oc2ccccc2)c(OC)c1,inactive
20,CC(C)(C)CN1CCN(Cc2cc3ccccc3[nH]2)CC1CCO (stereo unspecified),active: 5.22 µM
21,CCCCOc1ccccc1C1NC(=O)NC(C)=C1C(=O)OCc1ccco1 (stereo unspecified),"inconclusive: 13.1 µM [inhibitor, single point]"
22,COc1cc(NC(=O)c2cc3ccccc3o2)c(OC)cc1Cl,"inconclusive: 9.28 µM [inhibitor, partial curve, poor fit]"
23,CCCN1C(=O)c2cc(C(=O)NC3CCCCCC3)ccc2C1O (stereo unspecified),"inconclusive: 10.4 µM [inhibitor, single point]"

row,Structure (SMILES),Potency
1,Cc1oc(CC(C)C)cc1C(=O)NCCCC(=O)O,"inconclusive: 11.7 µM [inhibitor, single point]"
2,CCOc1ccc(C2NC(=O)c3n[nH]c(C)c32)cc1 (stereo unspecified),"inconclusive: 0.0026 µM [inhibitor, full curve, poor fit]"
3,O=S(=O)(NCC(c1ccc2c(c1)OCO2)N1CCN(c2ccccc2)CC1)c1ccccc1 (stereo unspecified),"inconclusive: 18.5 µM [inhibitor, single point]"
4,COc1ccc(NC(=O)CCSc2nnnn2C)cc1,"inconclusive: 18.5 µM [inhibitor, single point]"
5,CSCC(C)N1CCC(n2nccc2NC(=O)c2ccccc2C)CC1 (stereo unspecified),inactive
6,CC(C)CN1CCN(Cc2cc(F)ccc2-n2cccn2)CC1CCO (stereo unspecified),"inconclusive: 13.1 µM [inhibitor, single point]"
7,COc1cc(NC(=O)C2CCCN2C(=O)OCc2ccccc2)cc(OC)c1 (stereo unspecified),inactive
8,COc1ccc2nc(N3C(=O)/C(=C/c4ccc(Cl)cc4)NC3=S)sc2c1,"inconclusive: 2.62 µM [inhibitor, single point]"
9,CCC1CCCCN1C(=S)Nc1ccc(S(=O)(=O)Nc2ncccn2)cc1 (stereo unspecified),active: 10.4 µM
10,CCOc1ccc(NC(=O)c2ccc3c(c2)OCCO3)cc1S(=O)(=O)N(CC)CC,active: 13.1 µM
11,Cc1ccc(N(C)C(=O)N2CCN(S(=O)(=O)c3ccc4ccccc4c3)CC2)cc1,"inconclusive: 13.1 µM [inhibitor, single point]"
12,CC(=O)Cc1nsc(NC(=O)c2ccc(COc3cccc(C)c3)o2)n1,inactive
13,CCC(=O)NC(=S)Nc1ccc(NC(=O)c2ccco2)cc1,"inconclusive: 18.5 µM [inhibitor, partial curve, poor fit]"
14,CCN(CC)S(=O)(=O)c1cccc(NN=c2c(=O)c3ccccc3c2=O)c1,inactive
15,O=C(NCCc1ccco1)C(=O)NCCC1CCCCN1S(=O)(=O)c1ccccc1 (stereo unspecified),"inconclusive: 18.5 µM [inhibitor, single point]"
16,COCc1ccccc1C1=CC(=O)C[C@H](c2ccc(F)cc2)C1,"inconclusive: 1.47 µM [inhibitor, partial curve, poor fit]"
17,CCn1cc(CN2CCCC(C(=O)Nc3ccc(-c4cscn4)cc3)C2)c(C)n1 (stereo unspecified),"inconclusive: 1.04 µM [inhibitor, full curve]"
18,COc1ccc(Cl)cc1NC(=O)CC1S/C(=N/N=C2CCCCCC2)NC1=O (stereo unspecified),active: 13.1 µM
19,c1cnc2ccc(-c3ccc4ncccc4c3)cc2c1,"inconclusive: 11.7 µM [inhibitor, single point]"
20,Cc1ccc(CC(=O)N(C)CC(=O)N(CC(C)C)c2c(N)n(CC(C)C)c(=O)[nH]c2=O)cc1C,"inconclusive: 18.5 µM [inhibitor, single point]"
21,O=C(c1ccc(CS(=O)(=O)c2ccc(Br)cc2)o1)N1CCN(c2ccc(F)cc2)CC1,"inconclusive: 1.17 µM [inhibitor, partial curve, poor fit]"
22,O=C(c1ccc2c(c1)ncn2C1CCCCCC1)N1CCC2(CC1)OCCO2,"inconclusive: 4.65 µM [inhibitor, partial curve, poor fit]"
23,CC(C)(O)C(=O)NN(Cc1ccccc1)c1ccccc1,inactive

# Arranged by length of the SMILES (rising): part of the list above
row,Structure (SMILES),Potency
19,c1cnc2ccc(-c3ccc4ncccc4c3)cc2c1,"inconclusive: 11.7 µM [inhibitor, single point]"
3,O=S(=O)(NCC(c1ccc2c(c1)OCO2)N1CCN(c2ccccc2)CC1)c1ccccc1 (stereo unspecified),"inconclusive: 18.5 µM [inhibitor, single point]"
21,O=C(c1ccc(CS(=O)(=O)c2ccc(Br)cc2)o1)N1CCN(c2ccc(F)cc2)CC1,"inconclusive: 1.17 µM [inhibitor, partial curve, poor fit]"
